Test results published in publication PMC4633636.
These are yes or no findings as the source states them, for the method shown. For part of these data: In cells and extracts the contact can be indirect. Some results given as binding are weak or reduced against the parent protein; the word gives no strength.

Amino acid sequences for entries named in this document (tags omitted). A change or cut given only in a name is not applied to a line headed by its entry.
UniProt O95365: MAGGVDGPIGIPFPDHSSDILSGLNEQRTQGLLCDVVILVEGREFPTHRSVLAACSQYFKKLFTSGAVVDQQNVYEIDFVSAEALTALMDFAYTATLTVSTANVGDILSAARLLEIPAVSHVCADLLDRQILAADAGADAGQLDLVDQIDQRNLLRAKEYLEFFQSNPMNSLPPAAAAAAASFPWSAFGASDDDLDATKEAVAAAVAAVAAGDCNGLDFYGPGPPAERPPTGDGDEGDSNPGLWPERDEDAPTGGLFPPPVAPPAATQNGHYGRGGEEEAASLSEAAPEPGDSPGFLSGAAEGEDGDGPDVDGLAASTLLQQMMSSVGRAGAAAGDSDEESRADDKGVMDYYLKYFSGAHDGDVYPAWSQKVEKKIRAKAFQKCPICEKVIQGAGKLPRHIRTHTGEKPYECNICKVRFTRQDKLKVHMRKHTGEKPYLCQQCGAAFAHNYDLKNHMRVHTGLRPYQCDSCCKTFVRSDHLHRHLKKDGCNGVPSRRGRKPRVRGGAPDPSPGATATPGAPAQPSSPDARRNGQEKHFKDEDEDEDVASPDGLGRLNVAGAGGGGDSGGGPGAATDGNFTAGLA
UniProt P23475: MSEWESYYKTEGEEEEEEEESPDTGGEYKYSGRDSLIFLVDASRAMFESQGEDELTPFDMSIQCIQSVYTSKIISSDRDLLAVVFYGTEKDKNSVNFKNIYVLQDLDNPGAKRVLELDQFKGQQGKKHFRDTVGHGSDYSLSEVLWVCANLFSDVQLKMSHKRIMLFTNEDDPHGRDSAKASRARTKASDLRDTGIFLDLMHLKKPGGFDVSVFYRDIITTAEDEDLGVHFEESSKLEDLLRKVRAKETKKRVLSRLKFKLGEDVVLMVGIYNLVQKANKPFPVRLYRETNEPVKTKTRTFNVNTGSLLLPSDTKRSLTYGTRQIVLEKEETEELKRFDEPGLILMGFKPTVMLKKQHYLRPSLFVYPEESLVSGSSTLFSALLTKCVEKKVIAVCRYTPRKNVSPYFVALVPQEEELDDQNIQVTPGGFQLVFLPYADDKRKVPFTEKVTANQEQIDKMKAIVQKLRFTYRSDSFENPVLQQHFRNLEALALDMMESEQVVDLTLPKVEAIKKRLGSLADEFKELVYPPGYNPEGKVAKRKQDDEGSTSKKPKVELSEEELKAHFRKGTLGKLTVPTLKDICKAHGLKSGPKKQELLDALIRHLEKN
UniProt P27641: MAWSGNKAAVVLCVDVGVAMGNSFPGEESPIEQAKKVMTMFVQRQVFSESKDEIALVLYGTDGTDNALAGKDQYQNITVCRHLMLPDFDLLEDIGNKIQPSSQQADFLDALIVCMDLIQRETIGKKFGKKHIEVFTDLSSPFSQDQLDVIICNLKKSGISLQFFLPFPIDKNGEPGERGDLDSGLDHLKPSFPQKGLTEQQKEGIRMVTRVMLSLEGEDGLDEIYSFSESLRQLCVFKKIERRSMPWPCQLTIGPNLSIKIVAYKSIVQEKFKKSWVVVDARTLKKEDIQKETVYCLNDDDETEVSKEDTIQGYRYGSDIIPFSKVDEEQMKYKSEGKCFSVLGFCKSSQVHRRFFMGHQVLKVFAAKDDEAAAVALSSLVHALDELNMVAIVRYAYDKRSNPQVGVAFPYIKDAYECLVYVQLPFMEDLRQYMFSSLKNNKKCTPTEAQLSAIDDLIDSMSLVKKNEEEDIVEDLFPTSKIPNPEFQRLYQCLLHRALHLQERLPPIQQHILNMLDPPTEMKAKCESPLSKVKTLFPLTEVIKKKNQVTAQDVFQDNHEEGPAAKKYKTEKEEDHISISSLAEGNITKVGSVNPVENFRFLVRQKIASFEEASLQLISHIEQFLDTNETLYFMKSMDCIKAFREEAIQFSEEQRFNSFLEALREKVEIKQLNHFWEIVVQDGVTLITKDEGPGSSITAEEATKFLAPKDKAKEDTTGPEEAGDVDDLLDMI
UniProt P78527: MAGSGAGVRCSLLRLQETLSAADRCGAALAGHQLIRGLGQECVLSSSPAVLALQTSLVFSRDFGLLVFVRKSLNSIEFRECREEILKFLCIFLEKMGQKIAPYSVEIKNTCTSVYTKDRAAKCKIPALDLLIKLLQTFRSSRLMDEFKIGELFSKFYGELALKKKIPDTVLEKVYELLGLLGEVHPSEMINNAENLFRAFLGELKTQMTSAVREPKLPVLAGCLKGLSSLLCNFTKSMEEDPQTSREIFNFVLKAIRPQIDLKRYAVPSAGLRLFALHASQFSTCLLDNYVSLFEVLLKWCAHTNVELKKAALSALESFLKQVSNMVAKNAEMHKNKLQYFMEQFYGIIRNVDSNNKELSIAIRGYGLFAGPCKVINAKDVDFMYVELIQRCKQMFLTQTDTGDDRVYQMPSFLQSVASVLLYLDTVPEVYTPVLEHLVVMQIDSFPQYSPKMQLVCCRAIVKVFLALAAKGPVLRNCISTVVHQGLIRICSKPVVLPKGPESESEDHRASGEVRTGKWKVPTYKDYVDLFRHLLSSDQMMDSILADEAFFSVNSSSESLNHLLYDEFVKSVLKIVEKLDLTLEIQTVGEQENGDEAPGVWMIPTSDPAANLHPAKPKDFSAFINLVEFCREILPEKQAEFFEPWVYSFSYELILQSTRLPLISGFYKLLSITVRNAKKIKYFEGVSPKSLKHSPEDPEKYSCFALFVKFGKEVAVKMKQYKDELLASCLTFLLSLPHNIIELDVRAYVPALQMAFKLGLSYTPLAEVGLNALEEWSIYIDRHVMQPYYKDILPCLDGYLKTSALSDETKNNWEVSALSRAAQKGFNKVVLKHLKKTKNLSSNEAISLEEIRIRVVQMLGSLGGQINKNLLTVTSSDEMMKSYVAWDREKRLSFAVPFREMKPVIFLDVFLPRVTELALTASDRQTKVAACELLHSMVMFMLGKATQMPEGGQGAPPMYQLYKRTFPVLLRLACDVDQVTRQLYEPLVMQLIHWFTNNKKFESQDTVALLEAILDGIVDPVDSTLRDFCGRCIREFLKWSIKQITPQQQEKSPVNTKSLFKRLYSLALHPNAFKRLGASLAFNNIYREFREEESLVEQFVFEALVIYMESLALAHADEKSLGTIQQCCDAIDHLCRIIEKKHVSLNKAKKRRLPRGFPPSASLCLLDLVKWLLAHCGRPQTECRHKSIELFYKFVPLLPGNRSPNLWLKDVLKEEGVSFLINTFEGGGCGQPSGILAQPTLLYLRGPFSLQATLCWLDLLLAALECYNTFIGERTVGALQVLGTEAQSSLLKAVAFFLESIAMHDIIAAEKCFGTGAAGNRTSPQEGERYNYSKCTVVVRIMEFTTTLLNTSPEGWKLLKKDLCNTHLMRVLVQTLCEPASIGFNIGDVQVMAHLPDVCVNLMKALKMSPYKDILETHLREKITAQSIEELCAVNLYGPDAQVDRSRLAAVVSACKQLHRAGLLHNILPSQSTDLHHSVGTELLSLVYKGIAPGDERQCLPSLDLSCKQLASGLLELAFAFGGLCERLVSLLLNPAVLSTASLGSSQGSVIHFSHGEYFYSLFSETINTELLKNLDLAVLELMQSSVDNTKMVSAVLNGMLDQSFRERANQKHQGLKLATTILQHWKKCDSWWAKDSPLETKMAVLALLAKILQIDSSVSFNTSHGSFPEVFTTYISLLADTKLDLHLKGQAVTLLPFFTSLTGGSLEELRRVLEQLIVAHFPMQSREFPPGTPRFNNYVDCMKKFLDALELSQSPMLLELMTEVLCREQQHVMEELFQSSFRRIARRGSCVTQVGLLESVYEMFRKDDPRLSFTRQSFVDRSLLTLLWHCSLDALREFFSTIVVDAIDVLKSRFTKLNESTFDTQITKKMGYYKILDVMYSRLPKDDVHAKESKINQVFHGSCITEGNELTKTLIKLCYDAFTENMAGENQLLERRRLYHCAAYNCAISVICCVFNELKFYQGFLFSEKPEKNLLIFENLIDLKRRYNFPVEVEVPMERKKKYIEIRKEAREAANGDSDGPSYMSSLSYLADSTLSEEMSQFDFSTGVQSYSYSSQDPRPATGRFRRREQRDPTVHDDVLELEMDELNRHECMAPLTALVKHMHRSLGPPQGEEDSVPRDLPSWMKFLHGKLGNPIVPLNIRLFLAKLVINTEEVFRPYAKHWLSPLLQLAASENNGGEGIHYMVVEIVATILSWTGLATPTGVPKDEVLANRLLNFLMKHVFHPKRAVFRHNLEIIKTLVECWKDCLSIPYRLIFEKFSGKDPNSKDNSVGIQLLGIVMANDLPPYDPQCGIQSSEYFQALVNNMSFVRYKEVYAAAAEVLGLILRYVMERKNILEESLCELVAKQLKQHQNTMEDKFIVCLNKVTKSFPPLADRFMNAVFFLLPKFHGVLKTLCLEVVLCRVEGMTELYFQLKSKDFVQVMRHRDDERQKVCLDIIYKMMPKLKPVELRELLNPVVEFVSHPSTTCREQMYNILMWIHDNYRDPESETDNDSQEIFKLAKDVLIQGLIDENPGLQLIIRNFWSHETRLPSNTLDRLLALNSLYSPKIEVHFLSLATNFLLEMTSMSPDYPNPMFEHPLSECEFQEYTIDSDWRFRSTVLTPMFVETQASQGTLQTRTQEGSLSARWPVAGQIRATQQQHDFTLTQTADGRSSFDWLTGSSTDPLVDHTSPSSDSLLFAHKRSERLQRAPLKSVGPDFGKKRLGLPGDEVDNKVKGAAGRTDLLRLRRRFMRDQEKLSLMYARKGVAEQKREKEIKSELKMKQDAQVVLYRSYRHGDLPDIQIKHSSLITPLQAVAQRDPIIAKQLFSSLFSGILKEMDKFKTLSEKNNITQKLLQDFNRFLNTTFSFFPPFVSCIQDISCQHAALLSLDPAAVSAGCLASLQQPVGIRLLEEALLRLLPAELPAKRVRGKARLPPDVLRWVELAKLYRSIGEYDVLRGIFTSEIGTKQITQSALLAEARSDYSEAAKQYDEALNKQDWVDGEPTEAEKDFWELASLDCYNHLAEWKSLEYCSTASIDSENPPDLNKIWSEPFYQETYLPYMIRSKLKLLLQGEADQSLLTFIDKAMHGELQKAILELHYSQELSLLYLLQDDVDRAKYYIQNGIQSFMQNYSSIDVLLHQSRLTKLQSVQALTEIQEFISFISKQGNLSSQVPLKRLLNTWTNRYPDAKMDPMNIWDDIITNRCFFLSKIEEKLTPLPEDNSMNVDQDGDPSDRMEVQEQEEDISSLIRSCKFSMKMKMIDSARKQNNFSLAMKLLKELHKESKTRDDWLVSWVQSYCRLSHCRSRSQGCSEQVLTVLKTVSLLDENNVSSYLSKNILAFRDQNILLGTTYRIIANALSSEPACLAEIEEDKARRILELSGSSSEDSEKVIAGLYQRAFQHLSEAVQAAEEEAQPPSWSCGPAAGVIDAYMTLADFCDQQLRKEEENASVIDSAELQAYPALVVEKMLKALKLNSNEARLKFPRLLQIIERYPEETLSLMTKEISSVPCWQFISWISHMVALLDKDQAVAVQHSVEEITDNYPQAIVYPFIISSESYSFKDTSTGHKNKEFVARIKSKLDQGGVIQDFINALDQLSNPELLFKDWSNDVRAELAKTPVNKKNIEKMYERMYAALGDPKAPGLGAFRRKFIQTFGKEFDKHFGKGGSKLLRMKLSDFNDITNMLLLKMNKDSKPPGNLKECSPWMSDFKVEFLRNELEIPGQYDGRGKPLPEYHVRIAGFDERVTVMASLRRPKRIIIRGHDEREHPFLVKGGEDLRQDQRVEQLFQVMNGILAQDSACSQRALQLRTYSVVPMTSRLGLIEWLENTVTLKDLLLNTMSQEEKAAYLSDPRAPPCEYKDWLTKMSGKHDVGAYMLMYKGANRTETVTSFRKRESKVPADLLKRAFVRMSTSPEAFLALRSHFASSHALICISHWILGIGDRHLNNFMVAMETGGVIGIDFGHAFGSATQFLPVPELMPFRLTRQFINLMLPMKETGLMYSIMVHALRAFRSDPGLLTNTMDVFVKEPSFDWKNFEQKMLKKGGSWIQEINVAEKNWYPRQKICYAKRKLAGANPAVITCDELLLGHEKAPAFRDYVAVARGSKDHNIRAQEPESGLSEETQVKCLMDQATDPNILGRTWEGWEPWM

Key:
[1] = molecular target: human LRF tagged with Flag and haemagglutinin (HA) epitopes (human) (UniProt O95365)
[2] = molecular target: Ku70/Ku80 heterodimer, endogenous in mouse embryonic fibroblasts (mouse (endogenous in MEF)) (UniProt P23475+P27641); experiment: co-IP; Ku70 co-immunoprecipitation from control (p53-/- Lrf f/f ctr) and LRF conditional knockout (p53-/- Lrf f/f cre) MEF; less DNA-PKcs found in LRF-depleted cells
[3] = molecular target: endogenous LRF (UniProt O95365); experiment: co-IP; endogenous co-immunoprecipitation in the presence of ethidium bromide (50 μg ml^-1), which disrupts DNA-dependent interactions
[4] = molecular target: endogenous LRF (UniProt O95365); experiment: co-IP; endogenous, reciprocal; 1 mg cell lysate (50 mM Tris pH 8.0, 150 mM NaCl, 0.5% NP-40), antibody 3-4 h at 4 °C, protein A beads; washed with 20 mM Tris pH 8.0, 100 mM NaCl, 1 mM EDTA, 0.5% NP-40; no ethidium bromide
[5] = molecular target: FLAG-tagged LRF (UniProt O95365); experiment: pull-down; in vitro binding: FLAG-tagged LRF held on Flag antibody affinity resin, washed with 500 mM NaCl; purified DNA-PK components added in the absence of EtBr; western blotting; both purified
[6] = molecular target: FLAG-tagged LRF (UniProt O95365); experiment: pull-down; in vitro binding: FLAG-tagged LRF held on Flag antibody affinity resin, washed with 500 mM NaCl; purified DNA-PK components added in the presence of EtBr; western blotting; both purified

“DNA-PKcs (catalytic subunit of DNA-dependent protein kinase), endogenous in HeLa (from UniProt P78527 1-4128)” was tested. Which binding [1] did it give?
The binding was “binds”.

With “DNA-PKcs, endogenous in mouse embryonic fibroblasts (from UniProt P97313 1-4128)” as the substance, how does the binding [2] read?
Its binding is “binds”.

What does the source list for “endogenous DNA-PKcs (from UniProt P78527 1-4128)”?
binding [3]: binds; binding [4]: binds

What does the source list for “purified DNA-PKcs (component of the purified DNA-PK complex, Promega) (from UniProt P78527 1-4128)”?
binding [5]: binds; binding [6]: binds
